From patent publication US9174980B2, “Heterocyclic compounds as inhibitors of leukotriene production” (Boehringer Ingelheim International GmbH, priority 2012, dated 2015)
Structures were worked out from names or drawings and are uncertain.

By UniProt entry, the sequences of proteins in these tests, tags left out.
UniProt P20292, whole entry: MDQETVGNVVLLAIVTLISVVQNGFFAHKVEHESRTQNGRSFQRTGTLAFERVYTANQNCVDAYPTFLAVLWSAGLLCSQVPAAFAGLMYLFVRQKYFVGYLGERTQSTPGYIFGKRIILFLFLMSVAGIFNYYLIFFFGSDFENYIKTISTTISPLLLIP

Key:
[1] = biological target: recombinant human FLAP protein (Homo sapiens, UniProt P20292); test: FLAP binding assay (Scintillation Proximity Assay, displacement of [125I]L-691,831); settings: read-out: Human FLAP SPA Binding (IC50 nM); tested form: TFA
Procedure: Compounds are assessed for the ability to bind to FLAP in a binding assay that measures compound-specific displacement of an iodinated (^125I) FLAP inhibitor via a Scintillation Proximity Assay format (adapted from S. Charleson et al., Mol. Pharmacol., 1992, 41, 873-879).
Cell pellets produced from sf9 insect cells expressing recombinant human FLAP protein are resuspended in buffer A [15 mM Tris-HCl (pH 7.5), 2 mM MgCl2, 0.3 mM EDTA, 1 mM PMSF]. The cells are lysed with a Dounce homogenizer and the material is centrifuged at 10,000×g for 10 minutes. The supernatant is then collected and centrifuged at 100,000×g for 60 minutes. To prepare membrane protein for an assay, an aliquot of the 100,000×g pellet is resuspended in 1 ml of buffer A, Dounce homogenized, and finally subjected to polytron mixing (30 seconds). Membrane protein (25 μl, 5 μg) is mixed with WGA SPA beads (Amersham) and stirred for 1 h. […] (final concentrations: beads, 200 μg/well; protein, 5 μg/well; [^125I] probe, 0.08 nM/well (17 nCi/well). The plates are shaken for 2 h before reading on a Microbeta plate reader. Non-specific binding is determined by the addition of 10 μM cold L-691,831 compound.

[2] = system: synthesis of LTB4 in human whole blood; test: Human whole blood assay (calcimycin-stimulated LTB4 synthesis); settings: read-out: Human Whole Blood LTB4 Assay for FLAP (IC50 nM); tested form: TFA
Procedure: Compounds are additionally tested in a human whole blood assay to determine their ability to inhibit the synthesis of LTB4 in a cellular system. Compounds are combined with heparinized human whole blood and incubated for 15 minutes at 37° C. Calcimycin (20 μM final, prepared in phosphate-buffered saline, pH 7.4) is then added and the mixture is incubated for another 30 minutes at 37° C. The samples are centrifuged for 5 min at low speed (1500×g) and the plasma layer is removed. Plasma LTB4 concentrations are then measured using an antibody-based homogenous time-resolved fluorescence method (CisBio, Bedford, Mass.).

CC(C)C(C)(c1ccc(OCc2ccccn2)cc1)c1cn(Cc2ccc(C(C)(C)O)cn2)c2ccccc12 (centres unmarked)
IC50 [1]: 3.2 nM
IC50 [2]: 550 nM
